{"source": "patent US20250120399A1", "about": "“METHODS AND COMPOSITIONS FOR ALTERING METABOLITES IN VITIS SPP. AND PREVENTING PESTS AND PATHOGENS” (Impello Biosciences, Inc., priority 2022, published 2025)", "system": "Grapevine (Malbec variety)", "experiment": "Leaf sap Brix by refractometer, Malbec field trial (Example 1)", "assay_type": "in vivo, Vitis vinifera", "settings": "2.5 mM MDJ", "procedure": "An eliciting composition and methods of use to alter metabolite production were tested on 6 acres of a Malbec variety planted in 1999 in Napa Valley, California. Plants were spaced 5′×10′ (900 vines per acre) and grouped into randomized blocks of 900 vines per group, with six replicates covering three acres for the treatment group, and six replicates covering three acres for the control group. The treatment group received two applications of 32 oz of MDJ applied at a rate of 100 gallons per acre (2.5 mM), once prior to veraison on Aug. 9, 2021 and again when 5-10% of berries were starting to blush (veraison) using a ground spray rig (backpack sprayer). From within each replicate, three plants were selected at random, and 25 leaves from each plant were randomly selected for analysis. The internal sap of the leaves was tested using a refractometer on the days shown below in Table 4 and FIG. 1. Data from each replicate was averaged (25 leaves from each plant, 3 plants).", "note": "“And” between values parts separate entries of the source, which are not always exact repeats. Identical values can stand only once. Further values from the same series stand in other lists.", "data": [{"smiles": "CCCCCC1C(=O)CCC1CC(=O)OC", "note": "(stereo not drawn) [MDJ, methyl dihydrojasmonate]", "values": [{"measurement": "Brix, individual leaf", "setting": "Replicate 2 sampled on Sep. 22, 2021, MDJ treated Plant #1, leaf no. 1-25, one line per leaf", "result": "21.9 and 26.0 (2×) and 26.7 and 23.5 and 26.5 (2×) and 22.6 (2×) and 24.8 (2×) and 27.2 and 26.1 and 25.8 and 24.9"}, {"measurement": "Brix, individual leaf", "setting": "Replicate 2 sampled on Sep. 22, 2021, MDJ treated Plant #2, leaf no. 1-25, one line per leaf", "result": "26.3 and 22.7 and 24.6 and 27.0 and 24.5 (2×) and 22.8 and 26.4 and 24.1 and 27.7 and 26.6 and 25.3"}, {"measurement": "Brix, individual leaf", "setting": "Replicate 2 sampled on Sep. 22, 2021, MDJ treated Plant #3, leaf no. 1-25, one line per leaf", "result": "26.00 (3×) and 20.00 (2×) and 19.10 and 22.80 and 19.80 and 19.40 and 27.00 and 24.00 and 23.00 and 26.20 and 22.00"}, {"measurement": "Brix, individual leaf", "setting": "Replicate 3 sampled on Sep. 30, 2021, MDJ treated Plant #1, leaf no. 1-25, one line per leaf", "result": "28.7 (2×) and 24.5 and 23.6 and 26.0 (2×) and 28.0 (2×) and 27.1 and 26.4 and 29.1 and 25.0 (2×) and 28.5 and 29.9 and 29.5 (3×) and 30.4 and 31.1 and 33.0 and 29.0 (2×) and 23.8 and 30.0"}, {"measurement": "Brix, individual leaf", "setting": "Replicate 3 sampled on Sep. 30, 2021, MDJ treated Plant #2, leaf no. 1-25, one line per leaf", "result": "29.3 and 28.0 and 29.1 and 26.8 and 28.5 and 26.4 and 29.8 (2×) and 29.9 and 28.7 and 29.4 and 28.3 and 29.5 (3×) and 33.3 and 32.0 and 32.9 and 32.5 and 28.8 and 30.4 and 29.6 and 28.6 and 28.9 and 27.1"}, {"measurement": "Brix, individual leaf", "setting": "Replicate 3 sampled on Sep. 30, 2021, MDJ treated Plant #3, leaf no. 1-25, one line per leaf", "result": "31.9 and 29.8 (3×) and 29.2 and 29.3 and 29.9 (5×) and 28.5 (2×) and 26.7 and 29.5 (3×) and 32.0 and 29.0 and 28.7 and 26.9 and 29.6 and 30.0 and 30.2 and 28.9"}]}]}
